Data from paper PMC5313212.
No constants are given. Whether binding was seen depends on the method and setting.

Legend:
[1] = target: human KISS1 without the secretion signal peptide (residues 19-138) (human) (UniProt Q15726); experiment: SEC-MALS; Superdex 200 10/300 GL, 25°C, PBS pH 7.0, 1 mM TCEP, 0.03% NaN3; 100 μL of Kiss1 at 0.8 g/L injected at 0.5 mL/min; both purified
[2] = target: human KISS1 without the secretion signal peptide (residues 19-138) (human) (UniProt Q15726); experiment: SAXS; 10°C, 4.0 and 1.0 g/L in PBS pH 7.0, 1 mM DTT; curves at both concentrations merged; molecular weight calculated with Scåtter; both purified

binding [1]: no binding (tested: 0.8 g/L) | binding [2]: no binding (tested: 1.0 and 4.0 g/L)
B1: human KISS1 without the secretion signal peptide (residues 19-138) (protein, UniProt Q15726 19-138)
chain: GEPLEKVASVGNSRPTGQQLESLGLLAPGEQSLPCTERKPAATARLSRRGTSLSPPPESSGSPQQPGLSAPHSRQIPAPQGAVLVQREKDLPNYNWNSFGLRFGKREAAPGNHGRSAGRG
